Literature values in patent US20130252257A1, “QUANTIFICATION OF CIRCULATING STEM AND PROGENITOR CELLS AS A MEANS OF ASSESSING EFFICACY OF NATUROPATHIC INTERVENTIONS” (Creative Medical Health, Inc., priority 2011, published 2013).
At least one compound was matched to its structure with a doubt left.

System: circulating endothelial progenitor cells (EPC)

For `C[N+](C)(C)CCOP(=O)(O)OP(=O)([O-])OC[C@H]1O[C@@H](n2ccc(N)nc2=O)[C@H](O)[C@@H]1O` [citicoline], the EPC numbers (patients who received clotbuster drugs together with citicoline) is listed as “higher EPC numbers” and the “circulating EPC” value (stroke patients, 2000 mg citicoline per day, day 7 after treatment) is listed as “statistically significant increase”.
